Assay results: patent US20040014942A1, “Mutant strains capable of producing chemically diversified proteins by incorporation of non-conventional amino acids” (priority 2000, published 2004)

System: CU505 wt valS
Assay: Chemical composition of extracted proteins (amino acid analysis of hydrolysate)
Assay type: cell-based, E. coli
Settings: +Abu (0.2 mM L-amino-butyrate), valine limitation

Compound	Amino acid incorporated in the proteins
C[C@H](N)C(=O)O [Ala]	1.32 Leu equivalents
CC[C@H](C)[C@H](N)C(=O)O [isoleucine]	0.61 Leu equivalents
CC(C)[C@H](N)C(=O)O [valine]	0.83 Leu equivalents
L-2-amino-butyrate	0 Leu equivalents
